{"source": "PubChem BioAssay AID1347076", "about": "(National Center for Advancing Translational Sciences (NCATS), 2019)", "note": "About 13,000 (3.2%) of roughly 400,000 compounds were called active. The source calls these results inconclusive, neither active nor inactive. Calls come from the whole dose curve; as a rule, active = well fitted cell-killing curve with a large enough effect; inconclusive = small, poorly fitted or top-dose-only effect, or effect the other way; inactive = flat fitted curve, though single readings scatter. Potency is the fitted concentration of half-maximal effect.", "data": [{"test": "qHTS assay for MDR1-selective chemotherapeutics: Primary screen using the drug-selected MDR subline cells KB-V1; note: nearly all actives have a fitted effect of over 60% in size", "details": "KB-V1 MDR cells viability, CellTiter-Glo, 72 h", "from_the_text": "A prime difficulty in effectively treating cancer is the development of cellular resistance to multiple structurally unrelated anticancer drugs, a phenomenon known as multidrug resistance (MDR). […] Numerous strategies to overcome P-gp-mediated MDR have been explored, including the design of drugs that evade recognition and efflux, and development of inhibitors to block efflux and restore drug accumulation. […] An alternative approach is to exploit resistance by identifying drugs that target MDR cells over the non-resistant parental cells from which they were selected. […]\nOur goal is to identify compounds that selectively kill P-gp-expressing MDR cells. […] This assay will be utilized to conduct a quantitative high-throughput screen (qHTS) in collaboration with the NIH Chemical Genomics Center to identify selective agents, and probe hits arising from the screen will be validated using secondary assays and characterized through a well-established follow-up research program. […]\nBriefly, 5 microL of media containing either KB-V1 cells (columns 1-2, 4-48) are dispensed into Greiner white, treated solid-bottom 1536-well assay plates (media-only control is added to column 3). […] CellTiter-Glo (2.5 µL/well) is then added, and the plates are read in a ViewLux reader (Perkin-Elmer, clear luminescence filter, 1 second exposure, 1x binning) following a 10 minute incubation. […]", "values": [{"smiles": "O=C(OCCN1CCN(CCOCc2ccccc2)CC1)C(O)(c1ccccc1)c1ccccc1", "Potency": "inconclusive: 7.31 µM"}]}]}
